Reference: the supplement of paper PMC4604168 (melanoma cell lines)
The other results are listed elsewhere or left out. Repeats are few or missing, and single values can be far off.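 The apoptosis fraction was the count of cleaved-PARP antibody-stained nuclei relative to all DNA-stained nuclei, imaged in 1,536-well plates. Screening doses were set so most cells survived, and baseline and induced cleaved-PARP levels vary greatly across cell lines.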

Legend:
Assay in all cases: cleaved PARP positive nuclei fraction relative to DMSO control; melanoma cells; higher = more apoptosis
Conditions in all cases: library dose: low library concentration; 72 h
501Mel = tested on: 501Mel
A101D = tested on: A101D
A2058 = tested on: A2058
A375 = tested on: A375
C32 = tested on: C32
CBRC008 = tested on: CBRC008 (line from a melanoma biopsy)
CBRC013 = tested on: CBRC013 (line from a melanoma biopsy)
CBRC014 = tested on: CBRC014 (line from a melanoma biopsy)
CBRC016 = tested on: CBRC016 (line from a melanoma biopsy)
CBRC017 = tested on: CBRC017 (line from a melanoma biopsy)

SMILES	cleaved PARP positive nuclei fraction (501Mel) [%]	cleaved PARP positive nuclei fraction (A101D) [%]	cleaved PARP positive nuclei fraction (A2058) [%]	cleaved PARP positive nuclei fraction (A375) [%]	cleaved PARP positive nuclei fraction (C32) [%]	cleaved PARP positive nuclei fraction (CBRC008) [%]	cleaved PARP positive nuclei fraction (CBRC013) [%]	cleaved PARP positive nuclei fraction (CBRC014) [%]	cleaved PARP positive nuclei fraction (CBRC016) [%]	cleaved PARP positive nuclei fraction (CBRC017) [%]
CC1(C)NC(=O)N(c2ccc([N+](=O)[O-])c(C(F)(F)F)c2)C1=O [nilutamide] + Cc1ccc(NC(=O)c2cccc(N(C)C)c2)cc1NC(=O)c1ccc(O)cc1 [ZM336372] (first compound 1 µM, partner dose 2 µM)	82.7	76.4	96.7	72.6	96.5	67.3	82.4	105	145	105
Cn1nnc2c(C(N)=O)ncn2c1=O [temozolomide] + NC(=O)Nc1cc(-c2cccc(F)c2)sc1C(=O)N[C@H]1CCCNC1 [AZD7762] (first compound 2 µM, partner dose 0.02 µM)	73	153	471	133	59.6	97.7	88.2	131	120	88
C=CCNC1=C2C[C@@H](C)C[C@H](OC)[C@H](O)[C@@H](C)/C=C(\C)[C@H](OC(N)=O)[C@@H](OC)/C=C\C=C(/C)C(=O)NC(=CC1=O)C2=O [Tanespimycin] + CC1(C)NC(=O)N(c2ccc([N+](=O)[O-])c(C(F)(F)F)c2)C1=O [nilutamide] (first compound 0.002 µM, partner dose 1 µM)	78.3	77.1	106	84.2	123	222	88.5	75.6	141	70.1
NC(=O)Nc1cc(-c2cccc(F)c2)sc1C(=O)N[C@H]1CCCNC1 + CN(C)S(=O)(=O)c1ccc2c(c1)/C(=C/c1cc3c([nH]1)CCCC3)C(=O)N2 [SU6656] (first compound 0.02 µM, partner dose 0.4 µM)	75.7	128	117	414	733	67.1	133	89.9	35	114
C=CCn1c(=O)c2cnc(Nc3ccc(N4CCN(C)CC4)cc3)nc2n1-c1cccc(C(C)(C)O)n1 + Cn1cncc1[C@@](N)(c1ccc(Cl)cc1)c1ccc2c(c1)c(-c1cccc(Cl)c1)cc(=O)n2C [tipifarnib] (first compound 0.02 µM, partner dose 0.01 µM)	114	57.8	120	678	59.5	226	108	123	117	143
Clc1ccc(Nc2nnc(Cc3ccncc3)c3ccccc23)cc1 [vatalanib] + CN(C)S(=O)(=O)c1ccc2c(c1)/C(=C/c1cc3c([nH]1)CCCC3)C(=O)N2 [SU6656] (first compound 2 µM, partner dose 0.4 µM)	88.2	49.6	27.3	47.9	128	147	180	179	124	101
OCc1c[nH]c2ccccc12 [Indole-3-carbinol] + CO[C@@H]1[C@H](N(C)C(=O)c2ccccc2)C[C@H]2O[C@]1(C)n1c3ccccc3c3c4c(c5c6ccccc6n2c5c31)C(=O)NC4 [Midostaurin] (first compound 0.8 µM, partner dose 0.08 µM)	150	205	113	76.1	141	142	100	170	368	77.2
C=CCNC1=C2C[C@@H](C)C[C@H](OC)[C@H](O)[C@@H](C)/C=C(\C)[C@H](OC(N)=O)[C@@H](OC)/C=C\C=C(/C)C(=O)NC(=CC1=O)C2=O [Tanespimycin] + CN(NC(=O)CC(=O)NN(C)C(=S)c1ccccc1)C(=S)c1ccccc1 [STA4783] (first compound 0.002 µM, partner dose 0.006 µM)	181	49.8	117	3100	289	1690	281	467	175	138
CC(=O)c1c(C)c2cnc(Nc3ccc(N4CCNCC4)cn3)nc2n(C2CCCC2)c1=O [palbociclib] + Cc1ccc(NC(=O)c2cccc(N(C)C)c2)cc1NC(=O)c1ccc(O)cc1 [ZM336372] (first compound 0.04 µM, partner dose 2 µM)	132	119	52.7	272	133	263	118	105	137	72.3
CC1(C)NC(=O)N(c2ccc([N+](=O)[O-])c(C(F)(F)F)c2)C1=O [nilutamide] + NCC(=O)Nc1ccc(-n2nc(C(F)(F)F)cc2-c2ccc3c(ccc4ccccc43)c2)cc1 [OSU03012] (first compound 1 µM, partner dose 1 µM)	552	78.6	33.1	1730	19.9	47.9	127	71.1	136	59.5
CC1(C)NC(=O)N(c2ccc([N+](=O)[O-])c(C(F)(F)F)c2)C1=O [nilutamide] + OCCn1cc(-c2cnc3nnn(Cc4ccc5ncccc5c4)c3n2)cn1 [PF04217903] (first compound 1 µM, partner dose 1 µM)	76.4	52.8	99.2	128	87.5	41.5	80.7	72.7	126	161
O=C(CCCCCCC(=O)Nc1ccccc1)NO [vorinostat] + COc1cc2c(Oc3ccc4[nH]c(C)cc4c3F)ncnc2cc1OCCCN1CCCC1 [cediranib] (first compound 0.08 µM, partner dose 0.4 µM)	213	41.9	40.8	116	114	126	90.2	97.3	164	94.6
C[C@]1(c2nc3c(C(N)=O)cccc3[nH]2)CCCN1 [Veliparib] + NCC(=O)Nc1ccc(-n2nc(C(F)(F)F)cc2-c2ccc3c(ccc4ccccc43)c2)cc1 [OSU03012] (first compound 1.4 µM, partner dose 1 µM)	954	64.6	69.1	3850	41.8	100	96.1	104	84.7	239
C[C@]1(c2nc3c(C(N)=O)cccc3[nH]2)CCCN1 [Veliparib] + O=C(CCCCCCC(=O)Nc1ccccc1)NO [vorinostat] (first compound 1.4 µM, partner dose 0.08 µM)	260	90.7	94.1	135	175	83.4	78.9	75.3	142	106
Cc1cc(N2CCOCC2)cc2[nH]c(-c3c(NC[C@@H](O)c4cccc(Cl)c4)cc[nH]c3=O)nc12 + CN(C)S(=O)(=O)c1ccc2c(c1)/C(=C/c1cc3c([nH]1)CCCC3)C(=O)N2 [SU6656] (first compound 0.2 µM, partner dose 0.4 µM)	96.1	51.2	84	152	628	481	173	128	94.4	98.9
CO[C@@H]1[C@H](N(C)C(=O)c2ccccc2)C[C@H]2O[C@]1(C)n1c3ccccc3c3c4c(c5c6ccccc6n2c5c31)C(=O)NC4 [Midostaurin] + OCCn1cc(-c2cnc3nnn(Cc4ccc5ncccc5c4)c3n2)cn1 [PF04217903] (first compound 0.08 µM, partner dose 1 µM)	38.3	72.5	75.4	16.8	161	49.4	120	85.4	261	95
Cc1nc(Nc2ncc(C(=O)Nc3c(C)cccc3Cl)s2)cc(N2CCN(CCO)CC2)n1 [dasatanib] + CO[C@@H]1[C@H](N(C)C(=O)c2ccccc2)C[C@H]2O[C@]1(C)n1c3ccccc3c3c4c(c5c6ccccc6n2c5c31)C(=O)NC4 [Midostaurin] (first compound 0.004 µM, partner dose 0.08 µM)	76.3	66.2	88.3	159	224	155	101	89.4	154	154
Cn1cncc1[C@@](N)(c1ccc(Cl)cc1)c1ccc2c(c1)c(-c1cccc(Cl)c1)cc(=O)n2C [tipifarnib] + COc1cc2c(Oc3ccc4[nH]c(C)cc4c3F)ncnc2cc1OCCCN1CCCC1 [cediranib] (first compound 0.01 µM, partner dose 0.4 µM)	89.2	19.5	53.2	55.2	72	181	142	77.3	32.7	89.2
NC(=O)Nc1cc(-c2cccc(F)c2)sc1C(=O)N[C@H]1CCCNC1 + COc1cc2c(Oc3ccc4[nH]c(C)cc4c3F)ncnc2cc1OCCCN1CCCC1 [cediranib] (first compound 0.02 µM, partner dose 0.4 µM)	206	83.8	80	229	192	107	115	87.9	63.7	110
C#Cc1cccc(Nc2ncnc3cc(OCCOC)c(OCCOC)cc23)c1 [erlotinib] + Cn1cncc1[C@@](N)(c1ccc(Cl)cc1)c1ccc2c(c1)c(-c1cccc(Cl)c1)cc(=O)n2C [tipifarnib] (first compound 0.8 µM, partner dose 0.01 µM)	61.6	175	226	95.2	158	171	161	98	160	100
C=CCn1c(=O)c2cnc(Nc3ccc(N4CCN(C)CC4)cc3)nc2n1-c1cccc(C(C)(C)O)n1 + CC(C)(C)c1cnc(CSc2cnc(NC(=O)C3CCNCC3)s2)o1 [SNS-032] (first compound 0.02 µM, partner dose 0.01 µM)	80.5	108	58.5	363	104	104	160	119	56.1	215
C[C@]1(c2nc3c(C(N)=O)cccc3[nH]2)CCCN1 [Veliparib] + C=CCn1c(=O)c2cnc(Nc3ccc(N4CCN(C)CC4)cc3)nc2n1-c1cccc(C(C)(C)O)n1 [MK1775] (first compound 1.4 µM, partner dose 0.02 µM)	263	122	109	349	74.2	100	107	90.6	45.9	90.1
